# Laboratory results from PubChem BioAssay AID186 (DTP/NCI, 2004).
# Values are animals surviving of animals treated; these mice carried no tumour. Counts of survivors are from the toxicity check (mostly the fifth day) where no day follows; animals may have died later. Schedules are NCI's codes, read here as Q, the interval in days (D) or hours (H), X, the number of doses. Additions like (4×) count equal records among those shown. Some entries were tested several times; their values stand side by side, smallest first.
# System: B6D2F1 mice, nontumored toxicity test, survival
# Assay: NCI In Vivo Anticancer Drug Screen. Data for tumor model Nontumored Animals (Toxicity Test) in B6D2F1 (BDF1) mice
smiles,measurement,setting,value
COc1ccc2[nH]c3c(C)c4ccncc4c(C)c3c2c1,survivor count,"dose: 1.0 mg/kg/injection, schedule: Q03HX016 (ip), vehicle: water",8 of 8
same,survivor count,"dose: 1.0 mg/kg/injection, schedule: Q03HX024 (ip), vehicle: water",8 of 8
same,survivor count,"dose: 2.0 mg/kg/injection, schedule: Q03HX008 (ip), vehicle: water",8 of 8
same,survivor count,"dose: 2.0 mg/kg/injection, schedule: Q03HX008 (sc), vehicle: water",8 of 8
same,survivor count,"dose: 2.0 mg/kg/injection, schedule: Q03HX016 (ip), vehicle: water",8 of 8
same,survivor count,"dose: 2.0 mg/kg/injection, schedule: Q03HX024 (ip), vehicle: water",8 of 8
same,survivor count,"dose: 4.0 mg/kg/injection, schedule: Q01DX009 (ip), vehicle: water",8 of 8 (2×)
same,survivor count,"dose: 4.0 mg/kg/injection, schedule: Q01DX009 (sc), vehicle: water",8 of 8
same,survivor count,"dose: 4.0 mg/kg/injection, schedule: Q03HX008 (ip), vehicle: water",8 of 8
same,survivor count,"dose: 4.0 mg/kg/injection, schedule: Q03HX008 (sc), vehicle: water",8 of 8
same,survivor count,"dose: 4.0 mg/kg/injection, schedule: Q03HX016 (ip), vehicle: water",8 of 8
same,survivor count,"dose: 4.0 mg/kg/injection, schedule: Q03HX024 (ip), vehicle: water",8 of 8
same,survivor count,"dose: 8.0 mg/kg/injection, schedule: Q01DX009 (ip), vehicle: water",7 of 8 and 8 of 8
same,survivor count,"dose: 8.0 mg/kg/injection, schedule: Q01DX009 (sc), vehicle: water",7 of 7
same,survivor count,"dose: 8.0 mg/kg/injection, schedule: Q03HX008 (ip), vehicle: water",8 of 8
same,survivor count,"dose: 8.0 mg/kg/injection, schedule: Q03HX008 (sc), vehicle: water",8 of 8
same,survivor count,"dose: 8.0 mg/kg/injection, schedule: Q03HX016 (ip), vehicle: water",7 of 8
same,survivor count,"dose: 8.0 mg/kg/injection, schedule: Q03HX024 (ip), vehicle: water",7 of 8
same,survivor count,"dose: 8.0 mg/kg/injection, schedule: Q04DX003 (ip), vehicle: other",8 of 8
same,survivor count,"dose: 8.0 mg/kg/injection, schedule: Q08DX002 (ip), vehicle: other",8 of 8
same,survivor count,"dose: 16.0 mg/kg/injection, schedule: Q01DX001 (ip), vehicle: water",7 of 8
same,survivor count,"dose: 16.0 mg/kg/injection, schedule: Q01DX001 (sc), vehicle: other",8 of 8
same,survivor count,"dose: 16.0 mg/kg/injection, schedule: Q01DX009 (ip), vehicle: water",8 of 8 (2×)
same,survivor count,"dose: 16.0 mg/kg/injection, schedule: Q01DX009 (sc), vehicle: water",8 of 8
same,survivor count,"dose: 16.0 mg/kg/injection, schedule: Q03HX008 (ip), vehicle: water",8 of 8
same,survivor count,"dose: 16.0 mg/kg/injection, schedule: Q03HX008 (sc), vehicle: water",8 of 8
same,survivor count,"dose: 16.0 mg/kg/injection, schedule: Q03HX016 (ip), vehicle: water",6 of 8
same,survivor count,"dose: 16.0 mg/kg/injection, schedule: Q03HX024 (ip), vehicle: water",8 of 8
same,survivor count,"dose: 16.0 mg/kg/injection, schedule: Q04DX003 (ip), vehicle: other",8 of 8
same,survivor count,"dose: 16.0 mg/kg/injection, schedule: Q08DX002 (ip), vehicle: other",7 of 8
same,survivor count,"dose: 32.0 mg/kg/injection, schedule: Q01DX001 (ip), vehicle: water",8 of 8
same,survivor count,"dose: 32.0 mg/kg/injection, schedule: Q01DX001 (sc), vehicle: other",8 of 8
same,survivor count,"dose: 32.0 mg/kg/injection, schedule: Q01DX009 (ip), vehicle: water",6 of 8 and 8 of 8
same,survivor count,"dose: 32.0 mg/kg/injection, schedule: Q01DX009 (sc), vehicle: water",7 of 8
same,survivor count,"dose: 32.0 mg/kg/injection, schedule: Q03HX008 (ip), vehicle: water",3 of 8
same,survivor count,"dose: 32.0 mg/kg/injection, schedule: Q03HX008 (sc), vehicle: water",8 of 8
same,survivor count,"dose: 32.0 mg/kg/injection, schedule: Q03HX016 (ip), vehicle: water",2 of 8
same,survivor count,"dose: 32.0 mg/kg/injection, schedule: Q03HX024 (ip), vehicle: water",2 of 8
same,survivor count,"dose: 32.0 mg/kg/injection, schedule: Q04DX003 (ip), vehicle: other",8 of 8
same,survivor count,"dose: 32.0 mg/kg/injection, schedule: Q08DX002 (ip), vehicle: other",8 of 8
same,survivor count,"dose: 64.0 mg/kg/injection, schedule: Q01DX001 (ip), vehicle: water",8 of 8
same,survivor count,"dose: 64.0 mg/kg/injection, schedule: Q01DX001 (sc), vehicle: other",8 of 8
same,survivor count,"dose: 64.0 mg/kg/injection, schedule: Q01DX009 (ip), vehicle: water",0 of 8 and 2 of 8
same,survivor count,"dose: 64.0 mg/kg/injection, schedule: Q01DX009 (sc), vehicle: water",8 of 8
same,survivor count,"dose: 64.0 mg/kg/injection, schedule: Q03HX008 (ip), vehicle: water",0 of 8
same,survivor count,"dose: 64.0 mg/kg/injection, schedule: Q03HX008 (sc), vehicle: water",8 of 8
same,survivor count,"dose: 64.0 mg/kg/injection, schedule: Q04DX003 (ip), vehicle: other",8 of 8
same,survivor count,"dose: 64.0 mg/kg/injection, schedule: Q08DX002 (ip), vehicle: other",7 of 8
same,survivor count,"dose: 128.0 mg/kg/injection, schedule: Q01DX001 (ip), vehicle: water",3 of 8
same,survivor count,"dose: 128.0 mg/kg/injection, schedule: Q01DX001 (sc), vehicle: other",8 of 8
same,survivor count,"dose: 128.0 mg/kg/injection, schedule: Q01DX009 (ip), vehicle: water",1 of 8
same,survivor count,"dose: 128.0 mg/kg/injection, schedule: Q04DX003 (ip), vehicle: other",4 of 8
same,survivor count,"dose: 128.0 mg/kg/injection, schedule: Q08DX002 (ip), vehicle: other",3 of 8
same,survivor count,"dose: 256.0 mg/kg/injection, schedule: Q01DX001 (ip), vehicle: water",2 of 8
same,survivor count,"dose: 256.0 mg/kg/injection, schedule: Q01DX001 (sc), vehicle: other",8 of 8
same,survivor count,"dose: 256.0 mg/kg/injection, schedule: Q04DX003 (ip), vehicle: other",3 of 8
same,survivor count,"dose: 256.0 mg/kg/injection, schedule: Q08DX002 (ip), vehicle: other",1 of 8
